From article PMC7966362
Results are given in words; binding and its absence hold for the method and conditions named. In cells and extracts the contact can be indirect. A result given as binding can be weak or reduced; the word gives no strength. Sequences can lack the tags named with a protein.

B1: HA-tagged AE2 wild type (full length, mouse) (protein, UniProt P13808 1-1237)
chain: MSSAPRRPASGADSLHTPEPESLSPGTPGFPEQEEDELRTLGVERFEEILQEAGSRGGEEPGRSYGEEDFEYHRQSSHHIHHPLSTHLPPDARRRKTPQGPGRKPRRRPGASPTGETPTIEEGEEDEEEASEAEGFRAPPQQPSPATTPSAVQFFLQEDEGAERKPERTSPSPPTQTPHQEAAPRASKGAQTGTLVEEMVAVASATAGGDDGGAAGRPLTKAQPGHRSYNLQERRRIGSMTGVEQALLPRVPTDESEAQTLATADLDLMKSHRFEDVPGVRRHLVRKNAKGSTQAAREGREPGPTPRARPRAPHKPHEVFVELNELLLDKNQEPQWRETARWIKFEEDVEEETERWGKPHVASLSFRSLLELRRTLAHGAVLLDLDQQTLPGVAHQVVEQMVISDQIKAEDRANVLRALLLKHSHPSDEKEFSFPRNISAGSLGSLLGHHHAQGTESDPHVTEPLIGGVPETRLEVDRERELPPPAPPAGITRSKSKHELKLLEKIPENAEATVVLVGCVEFLSRPTMAFVRLREAVELDAVLEVPVPVRFLFLLLGPSSANMDYHEIGRSISTLMSDKQFHEAAYLADERDDLLTAINAFLDCSVVLPPSEVQGEELLRSVAHFQRQMLKKREEQGRLLPPGAGLEPKSAQDKALLQMVEVAGAAEDDPLRRTGRPFGGLIRDVRRRYPHYLSDFRDALDPQCLAAVIFIYFAALSPAITFGGLLGEKTKDLIGVSELIMSTALQGVVFCLLGAQPLLVIGFSGPLLVFEEAFFSFCSSNELEYLVGRVWIGFWLVFLALLMVALEGSFLVRFVSRFTQEIFAFLISLIFIYETFYKLIKIFQEHPLHGCSGSNDSEAGSSSSSNMTWATTILVPDNSSASGQSGQEKPRGQPNTALLSLVLMAGTFFIAFFLRKFKNSRFFPGRIRRVIGDFGVPIAILIMVLVDYSIEDTYTQKLSVPSGFSVTAPDKRGWVINPLGEKTPFPVWMMVASLLPAVLVFILIFMETQITTLIISKKERMLQKGSGFHLDLLLIVAMGGICALFGLPWLAAATVRSVTHANALTVMSKAVAPGDKPKIQEVKEQRVTGLLVALLVGLSMVIGDLLRQIPLAVLFGIFLYMGVTSLNGIQFYERLHLLLMPPKHHPDVTYVKKVRTMRMHLFTALQLLCLALLWAVMSTAASLAFPFILILTVPLRMVVLTRIFTEREMKCLDANEAEPVFDECEGVDEYNEMPMPV
B2: GFP-tagged AE2 wild type (protein, UniProt P13808 1-1237)
chain: MSSAPRRPASGADSLHTPEPESLSPGTPGFPEQEEDELRTLGVERFEEILQEAGSRGGEEPGRSYGEEDFEYHRQSSHHIHHPLSTHLPPDARRRKTPQGPGRKPRRRPGASPTGETPTIEEGEEDEEEASEAEGFRAPPQQPSPATTPSAVQFFLQEDEGAERKPERTSPSPPTQTPHQEAAPRASKGAQTGTLVEEMVAVASATAGGDDGGAAGRPLTKAQPGHRSYNLQERRRIGSMTGVEQALLPRVPTDESEAQTLATADLDLMKSHRFEDVPGVRRHLVRKNAKGSTQAAREGREPGPTPRARPRAPHKPHEVFVELNELLLDKNQEPQWRETARWIKFEEDVEEETERWGKPHVASLSFRSLLELRRTLAHGAVLLDLDQQTLPGVAHQVVEQMVISDQIKAEDRANVLRALLLKHSHPSDEKEFSFPRNISAGSLGSLLGHHHAQGTESDPHVTEPLIGGVPETRLEVDRERELPPPAPPAGITRSKSKHELKLLEKIPENAEATVVLVGCVEFLSRPTMAFVRLREAVELDAVLEVPVPVRFLFLLLGPSSANMDYHEIGRSISTLMSDKQFHEAAYLADERDDLLTAINAFLDCSVVLPPSEVQGEELLRSVAHFQRQMLKKREEQGRLLPPGAGLEPKSAQDKALLQMVEVAGAAEDDPLRRTGRPFGGLIRDVRRRYPHYLSDFRDALDPQCLAAVIFIYFAALSPAITFGGLLGEKTKDLIGVSELIMSTALQGVVFCLLGAQPLLVIGFSGPLLVFEEAFFSFCSSNELEYLVGRVWIGFWLVFLALLMVALEGSFLVRFVSRFTQEIFAFLISLIFIYETFYKLIKIFQEHPLHGCSGSNDSEAGSSSSSNMTWATTILVPDNSSASGQSGQEKPRGQPNTALLSLVLMAGTFFIAFFLRKFKNSRFFPGRIRRVIGDFGVPIAILIMVLVDYSIEDTYTQKLSVPSGFSVTAPDKRGWVINPLGEKTPFPVWMMVASLLPAVLVFILIFMETQITTLIISKKERMLQKGSGFHLDLLLIVAMGGICALFGLPWLAAATVRSVTHANALTVMSKAVAPGDKPKIQEVKEQRVTGLLVALLVGLSMVIGDLLRQIPLAVLFGIFLYMGVTSLNGIQFYERLHLLLMPPKHHPDVTYVKKVRTMRMHLFTALQLLCLALLWAVMSTAASLAFPFILILTVPLRMVVLTRIFTEREMKCLDANEAEPVFDECEGVDEYNEMPMPV
B3: GFP-tagged AE2 lacking aa 199–524 (protein, UniProt P13808)
chain: MSSAPRRPASGADSLHTPEPESLSPGTPGFPEQEEDELRTLGVERFEEILQEAGSRGGEEPGRSYGEEDFEYHRQSSHHIHHPLSTHLPPDARRRKTPQGPGRKPRRRPGASPTGETPTIEEGEEDEEEASEAEGFRAPPQQPSPATTPSAVQFFLQEDEGAERKPERTSPSPPTQTPHQEAAPRASKGAQTGTLVEERPTMAFVRLREAVELDAVLEVPVPVRFLFLLLGPSSANMDYHEIGRSISTLMSDKQFHEAAYLADERDDLLTAINAFLDCSVVLPPSEVQGEELLRSVAHFQRQMLKKREEQGRLLPPGAGLEPKSAQDKALLQMVEVAGAAEDDPLRRTGRPFGGLIRDVRRRYPHYLSDFRDALDPQCLAAVIFIYFAALSPAITFGGLLGEKTKDLIGVSELIMSTALQGVVFCLLGAQPLLVIGFSGPLLVFEEAFFSFCSSNELEYLVGRVWIGFWLVFLALLMVALEGSFLVRFVSRFTQEIFAFLISLIFIYETFYKLIKIFQEHPLHGCSGSNDSEAGSSSSSNMTWATTILVPDNSSASGQSGQEKPRGQPNTALLSLVLMAGTFFIAFFLRKFKNSRFFPGRIRRVIGDFGVPIAILIMVLVDYSIEDTYTQKLSVPSGFSVTAPDKRGWVINPLGEKTPFPVWMMVASLLPAVLVFILIFMETQITTLIISKKERMLQKGSGFHLDLLLIVAMGGICALFGLPWLAAATVRSVTHANALTVMSKAVAPGDKPKIQEVKEQRVTGLLVALLVGLSMVIGDLLRQIPLAVLFGIFLYMGVTSLNGIQFYERLHLLLMPPKHHPDVTYVKKVRTMRMHLFTALQLLCLALLWAVMSTAASLAFPFILILTVPLRMVVLTRIFTEREMKCLDANEAEPVFDECEGVDEYNEMPMPV
B4: GFP-tagged AE2 lacking aa 76–198 (protein, UniProt P13808)
chain: MSSAPRRPASGADSLHTPEPESLSPGTPGFPEQEEDELRTLGVERFEEILQEAGSRGGEEPGRSYGEEDFEYHRQMVAVASATAGGDDGGAAGRPLTKAQPGHRSYNLQERRRIGSMTGVEQALLPRVPTDESEAQTLATADLDLMKSHRFEDVPGVRRHLVRKNAKGSTQAAREGREPGPTPRARPRAPHKPHEVFVELNELLLDKNQEPQWRETARWIKFEEDVEEETERWGKPHVASLSFRSLLELRRTLAHGAVLLDLDQQTLPGVAHQVVEQMVISDQIKAEDRANVLRALLLKHSHPSDEKEFSFPRNISAGSLGSLLGHHHAQGTESDPHVTEPLIGGVPETRLEVDRERELPPPAPPAGITRSKSKHELKLLEKIPENAEATVVLVGCVEFLSRPTMAFVRLREAVELDAVLEVPVPVRFLFLLLGPSSANMDYHEIGRSISTLMSDKQFHEAAYLADERDDLLTAINAFLDCSVVLPPSEVQGEELLRSVAHFQRQMLKKREEQGRLLPPGAGLEPKSAQDKALLQMVEVAGAAEDDPLRRTGRPFGGLIRDVRRRYPHYLSDFRDALDPQCLAAVIFIYFAALSPAITFGGLLGEKTKDLIGVSELIMSTALQGVVFCLLGAQPLLVIGFSGPLLVFEEAFFSFCSSNELEYLVGRVWIGFWLVFLALLMVALEGSFLVRFVSRFTQEIFAFLISLIFIYETFYKLIKIFQEHPLHGCSGSNDSEAGSSSSSNMTWATTILVPDNSSASGQSGQEKPRGQPNTALLSLVLMAGTFFIAFFLRKFKNSRFFPGRIRRVIGDFGVPIAILIMVLVDYSIEDTYTQKLSVPSGFSVTAPDKRGWVINPLGEKTPFPVWMMVASLLPAVLVFILIFMETQITTLIISKKERMLQKGSGFHLDLLLIVAMGGICALFGLPWLAAATVRSVTHANALTVMSKAVAPGDKPKIQEVKEQRVTGLLVALLVGLSMVIGDLLRQIPLAVLFGIFLYMGVTSLNGIQFYERLHLLLMPPKHHPDVTYVKKVRTMRMHLFTALQLLCLALLWAVMSTAASLAFPFILILTVPLRMVVLTRIFTEREMKCLDANEAEPVFDECEGVDEYNEMPMPV
B5: GFP-tagged AE2 lacking aa 199–347 (protein, UniProt P13808)
chain: MSSAPRRPASGADSLHTPEPESLSPGTPGFPEQEEDELRTLGVERFEEILQEAGSRGGEEPGRSYGEEDFEYHRQSSHHIHHPLSTHLPPDARRRKTPQGPGRKPRRRPGASPTGETPTIEEGEEDEEEASEAEGFRAPPQQPSPATTPSAVQFFLQEDEGAERKPERTSPSPPTQTPHQEAAPRASKGAQTGTLVEEDVEEETERWGKPHVASLSFRSLLELRRTLAHGAVLLDLDQQTLPGVAHQVVEQMVISDQIKAEDRANVLRALLLKHSHPSDEKEFSFPRNISAGSLGSLLGHHHAQGTESDPHVTEPLIGGVPETRLEVDRERELPPPAPPAGITRSKSKHELKLLEKIPENAEATVVLVGCVEFLSRPTMAFVRLREAVELDAVLEVPVPVRFLFLLLGPSSANMDYHEIGRSISTLMSDKQFHEAAYLADERDDLLTAINAFLDCSVVLPPSEVQGEELLRSVAHFQRQMLKKREEQGRLLPPGAGLEPKSAQDKALLQMVEVAGAAEDDPLRRTGRPFGGLIRDVRRRYPHYLSDFRDALDPQCLAAVIFIYFAALSPAITFGGLLGEKTKDLIGVSELIMSTALQGVVFCLLGAQPLLVIGFSGPLLVFEEAFFSFCSSNELEYLVGRVWIGFWLVFLALLMVALEGSFLVRFVSRFTQEIFAFLISLIFIYETFYKLIKIFQEHPLHGCSGSNDSEAGSSSSSNMTWATTILVPDNSSASGQSGQEKPRGQPNTALLSLVLMAGTFFIAFFLRKFKNSRFFPGRIRRVIGDFGVPIAILIMVLVDYSIEDTYTQKLSVPSGFSVTAPDKRGWVINPLGEKTPFPVWMMVASLLPAVLVFILIFMETQITTLIISKKERMLQKGSGFHLDLLLIVAMGGICALFGLPWLAAATVRSVTHANALTVMSKAVAPGDKPKIQEVKEQRVTGLLVALLVGLSMVIGDLLRQIPLAVLFGIFLYMGVTSLNGIQFYERLHLLLMPPKHHPDVTYVKKVRTMRMHLFTALQLLCLALLWAVMSTAASLAFPFILILTVPLRMVVLTRIFTEREMKCLDANEAEPVFDECEGVDEYNEMPMPV

These binders were tested against FLAG-tagged L-IRBIT wild type (full length) (assay: co-IP; HEK 293T cells transfected with tagged constructs; lysis buffer 10 mM HEPES pH 7.4, 100 mM NaCl, 2 mM EDTA, 0.1% Triton X-100, 10 mM sodium fluoride; antibodies and Protein G overnight at 4 °C; immunoblot).

**Q.** B1 was tested. Which binding did it give?
**A.** Its binding is “binds”.

**Q.** For B2, which binding is on record?
**A.** The binding was “binds”.

**Q.** For B3, which binding is on record?
**A.** The binding was “binds”.

**Q.** How did the binding turn out when B4 was run?
**A.** The binding was “binds”.

**Q.** For B5, which binding is on record?
**A.** The binding was “binds weakly”.
